Measured values taken from article PMC6163694.
Results are given in words; binding and its absence hold for the method and conditions named. Binding seen in cells or lysates may run through a third protein. Some binding calls cover weakened binding; strength is not graded here.

Chains of the proteins cited; added tags and fusions are not shown.
UniProt P59242: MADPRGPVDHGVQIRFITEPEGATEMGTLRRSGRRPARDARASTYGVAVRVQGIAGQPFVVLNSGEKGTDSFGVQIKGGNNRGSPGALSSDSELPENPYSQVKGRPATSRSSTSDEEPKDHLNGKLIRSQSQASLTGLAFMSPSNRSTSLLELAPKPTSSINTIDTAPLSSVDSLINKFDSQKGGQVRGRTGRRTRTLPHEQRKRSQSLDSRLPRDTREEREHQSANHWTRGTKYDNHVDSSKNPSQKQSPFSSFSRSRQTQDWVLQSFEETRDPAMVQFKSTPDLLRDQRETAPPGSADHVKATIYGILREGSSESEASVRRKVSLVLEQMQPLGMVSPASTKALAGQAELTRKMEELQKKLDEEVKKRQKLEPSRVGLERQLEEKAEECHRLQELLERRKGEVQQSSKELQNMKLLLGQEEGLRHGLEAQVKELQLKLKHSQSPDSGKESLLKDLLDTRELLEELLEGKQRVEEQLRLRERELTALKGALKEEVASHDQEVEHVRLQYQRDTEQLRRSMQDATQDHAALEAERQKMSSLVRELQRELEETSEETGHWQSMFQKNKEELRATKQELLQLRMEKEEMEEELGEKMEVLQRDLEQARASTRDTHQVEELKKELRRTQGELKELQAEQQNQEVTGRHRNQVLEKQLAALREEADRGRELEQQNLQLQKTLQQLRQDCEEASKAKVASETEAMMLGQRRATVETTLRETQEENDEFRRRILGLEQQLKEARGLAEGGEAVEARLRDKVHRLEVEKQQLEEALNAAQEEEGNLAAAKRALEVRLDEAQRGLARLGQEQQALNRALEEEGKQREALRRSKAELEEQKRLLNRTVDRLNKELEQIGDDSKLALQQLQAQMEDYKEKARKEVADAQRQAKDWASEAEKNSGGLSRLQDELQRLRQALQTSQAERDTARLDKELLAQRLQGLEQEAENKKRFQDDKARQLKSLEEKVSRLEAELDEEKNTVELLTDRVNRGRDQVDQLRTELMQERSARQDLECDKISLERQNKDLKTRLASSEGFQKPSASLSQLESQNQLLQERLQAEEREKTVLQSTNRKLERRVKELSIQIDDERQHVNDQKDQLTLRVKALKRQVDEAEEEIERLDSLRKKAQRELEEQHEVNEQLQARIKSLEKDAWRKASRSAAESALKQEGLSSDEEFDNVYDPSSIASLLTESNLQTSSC
UniProt P70689: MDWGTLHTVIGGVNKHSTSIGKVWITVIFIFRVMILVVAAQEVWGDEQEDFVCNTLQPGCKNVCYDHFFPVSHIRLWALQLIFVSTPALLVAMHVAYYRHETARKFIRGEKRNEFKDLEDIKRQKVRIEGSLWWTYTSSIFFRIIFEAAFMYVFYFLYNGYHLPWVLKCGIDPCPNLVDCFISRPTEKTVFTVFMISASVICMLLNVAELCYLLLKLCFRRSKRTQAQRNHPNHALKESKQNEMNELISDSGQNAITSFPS
UniProt P23242: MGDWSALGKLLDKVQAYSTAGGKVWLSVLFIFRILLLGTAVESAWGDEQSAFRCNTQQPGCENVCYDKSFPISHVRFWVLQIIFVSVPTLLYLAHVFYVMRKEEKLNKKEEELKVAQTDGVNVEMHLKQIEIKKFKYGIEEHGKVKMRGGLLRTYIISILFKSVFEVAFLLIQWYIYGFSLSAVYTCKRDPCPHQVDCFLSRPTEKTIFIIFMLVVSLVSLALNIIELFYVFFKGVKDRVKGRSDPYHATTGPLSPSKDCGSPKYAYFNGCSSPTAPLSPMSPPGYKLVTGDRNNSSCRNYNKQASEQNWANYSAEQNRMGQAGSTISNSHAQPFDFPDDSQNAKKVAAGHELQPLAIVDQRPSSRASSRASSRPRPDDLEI

B1: argininosuccinate synthase 1 (ASS1) (protein, UniProt P16460 1-412)
chain: MSSKGSVVLAYSGGLDTSCILVWLKEQGYDVIAYLANIGQKEDFEEARKKALKLGAKKVFIEDVSKEFVEEFIWPAVQSSALYEDRYLLGTSLARPCIARRQVEIAQREGAKYVSHGATGKGNDQVRFELTCYSLAPQIKVIAPWRMPEFYNRFKGRNDLMEYAKQHGIPIPVTPKSPWSMDENLMHISYEAGILENPKNQAPPGLYTKTQDPAKAPNSPDVLEIEFKKGVPVKVTNIKDGTTRTTSLELFMYLNEVAGKHGVGRIDIVENRFIGMKSRGIYETPAGTILYHAHLDIEAFTMDREVRKIKQGLGLKFAELVYTGFWHSPECEFVRHCIQKSQERVEGKVQVSVFKGQVYILGRESPLSLYNEELVSMNVQGDYEPIDATGFININSLRLKEYHRLQSKVTAK
B2: connexin 31 (CX31), endogenous (protein, UniProt P28231 1-270)
chain: MDWKKLQDLLSGVNQYSTAFGRIWLSVVFVFRVLVYVVAAERVWGDEQKDFDCNTRQPGCTNVCYDNFFPISNIRLWALQLIFVTCPSMLVILHVAYREERERKHRQKHGEQCAKLYSHPGKKHGGLWWTYLFSLIFKLIIELVFLYVLHTLWHGFTMPRLVQCASIVPCPNTVDCYIARPTEKKVFTYFMVGASAVCIILTICEICYLIFHRIMRGISKGKSTKSISSPKSSSRASTCRCHHKLLESGDPEADPASEKLQASAPSLTPI

What follows are molecules tested against cingulin (CGN) (mouse (endogenous in mouse brain or liver)) (UniProt P59242) (assay: co-IP; anti-CGN antibody on precleared P2–P3 mouse liver lysate in RIPA buffer, 16 h at 4 °C, protein-A plus protein-G beads; Western blot; normal mouse serum as control).

binding | Molecule
binds | connexin 30 (CX30), endogenous (from UniProt P70689 1-261)
binds | connexin 43 (CX43), endogenous (from UniProt P23242 1-382)
binds | B1
binds | B2
